Values of other authors, collected in patent publication US20240207200A1, “USE OF PROPANDIOL MONONITRATE AND LIMONENE FOR REDUCING THE FORMATION OF METHANE EMANATING AND FOR IMPROVING THE DIGESTIBILITY” (DSM IP Assets B.V., priority 2021, published 2024).
At least one compound was matched to its structure with a doubt left.

System: ruminants
Conditions: reported, see e.g. WO2012/084629; cited from earlier work

SMILES: O=[N+]([O-])OCCCO [PDMN, Propanediol mononitrate]
- Methane production in ruminants (in words): significantly reduce
